Assay: Effect of uric acid and HSA on extent of AMBB oxidation (UPLC)
Type: physicochemical
Conditions: 100 μM AMBB

SMILES: CC(=O)Nc1ccc(OCc2ccc(B(O)O)cc2)cc1 [AMBB, (4-((4-Acetamidophenoxy)methyl)phenyl)-boronic Acid]
- effect of uric acid on yield of AM, H2O2-induced oxidation (50 μM H2O2, 0–400 μM uric acid): did not affect
- effect of HSA on efficiency of AM formation, H2O2-induced oxidation (50 μM H2O2, 0–700 μM HSA): significantly reduced
- amount of AMB-OH formed by HOCl oxidation (50 μM HOCl, 25 μM uric acid): reduced the amount of AMB-OH by approximately half
- AMBB oxidation by HOCl (50 μM HOCl, 200 μM uric acid): almost complete inhibition
- peak of AM after HOCl oxidation (50 μM HOCl, any amount of HSA, e.g. 25 μM): completely abolished
- AM formed (50 μM HOCl, no HSA, extended incubation): 50 µM
- effect of uric acid on extent of AMBB oxidation by ONOO– (50 μM ONOO–, 0–400 μM uric acid): virtually no effect
- yield of AM after ONOO– oxidation (50 μM ONOO–, 700 μM HSA): about 50%
